Source: the M2OR odorant receptor database
Substitutions are numbered along the chain they refer to. The list shows a part of the results, in another mix than the full data. The calls were merged from several studies; some rest on single wells. The list shows a part of the results. This is one part of the list.

Chains of the proteins cited; added tags and fusions are not shown. A line that says so, or that is headed by a name, gives the form on record, which may keep a tag or linker.
OR1A1, as listed by the source: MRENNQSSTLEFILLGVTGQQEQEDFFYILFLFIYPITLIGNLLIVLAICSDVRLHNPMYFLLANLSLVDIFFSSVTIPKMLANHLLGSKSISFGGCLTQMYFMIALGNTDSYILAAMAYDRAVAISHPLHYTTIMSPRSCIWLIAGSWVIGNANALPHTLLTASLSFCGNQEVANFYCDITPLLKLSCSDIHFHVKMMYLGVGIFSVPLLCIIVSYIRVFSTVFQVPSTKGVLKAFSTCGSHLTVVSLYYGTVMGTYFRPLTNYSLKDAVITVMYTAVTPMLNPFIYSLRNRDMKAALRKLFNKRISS
OR1E2, as listed by the source: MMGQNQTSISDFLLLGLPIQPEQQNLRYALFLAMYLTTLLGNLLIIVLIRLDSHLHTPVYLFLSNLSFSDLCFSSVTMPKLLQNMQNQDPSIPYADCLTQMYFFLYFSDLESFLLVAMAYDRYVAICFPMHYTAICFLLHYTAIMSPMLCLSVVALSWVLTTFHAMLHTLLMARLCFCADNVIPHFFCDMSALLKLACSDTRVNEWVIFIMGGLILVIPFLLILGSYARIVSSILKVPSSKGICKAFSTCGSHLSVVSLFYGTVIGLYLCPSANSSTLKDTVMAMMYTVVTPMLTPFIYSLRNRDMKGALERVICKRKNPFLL

Columns and labels:
Conditions in all cases: stereoisomer not certain
[1] = target: T1, OR13C3 (Homo sapiens) (UniProt Q8NGS6)
T1 sequence (whole entry): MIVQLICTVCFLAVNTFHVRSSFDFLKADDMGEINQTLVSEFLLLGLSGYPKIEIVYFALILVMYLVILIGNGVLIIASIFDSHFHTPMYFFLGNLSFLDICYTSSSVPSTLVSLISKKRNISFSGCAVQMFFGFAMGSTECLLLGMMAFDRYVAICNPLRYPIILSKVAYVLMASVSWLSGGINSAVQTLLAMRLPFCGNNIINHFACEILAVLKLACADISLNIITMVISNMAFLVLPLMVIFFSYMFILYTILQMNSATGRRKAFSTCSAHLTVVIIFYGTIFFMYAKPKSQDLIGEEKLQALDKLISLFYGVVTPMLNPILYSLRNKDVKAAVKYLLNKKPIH
In short: (§1)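 Transient luciferase assays in mammalian cell lines were common, though methods varied by source. The values come from published papers and their supplementary material, with extra details from the original authors when needed. Responsive refers to a measured signal the original authors judged statistically different from baseline, and non-responsive (inactive) to the remainder.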

[2] = target: T2, OR13C4 (Homo sapiens) (UniProt Q8NGS5)
T2 sequence (whole entry): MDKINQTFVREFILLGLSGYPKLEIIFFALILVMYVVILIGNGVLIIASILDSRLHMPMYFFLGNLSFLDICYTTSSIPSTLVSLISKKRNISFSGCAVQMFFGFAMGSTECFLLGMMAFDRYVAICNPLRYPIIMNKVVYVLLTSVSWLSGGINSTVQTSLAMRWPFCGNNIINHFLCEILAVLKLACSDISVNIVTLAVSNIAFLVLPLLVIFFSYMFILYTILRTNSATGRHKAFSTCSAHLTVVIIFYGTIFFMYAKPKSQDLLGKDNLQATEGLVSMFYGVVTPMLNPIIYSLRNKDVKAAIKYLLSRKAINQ
In short: as §1

[3] = target: T3, OR13C8 (Homo sapiens) (UniProt Q8NGS7)
T3 sequence (whole entry): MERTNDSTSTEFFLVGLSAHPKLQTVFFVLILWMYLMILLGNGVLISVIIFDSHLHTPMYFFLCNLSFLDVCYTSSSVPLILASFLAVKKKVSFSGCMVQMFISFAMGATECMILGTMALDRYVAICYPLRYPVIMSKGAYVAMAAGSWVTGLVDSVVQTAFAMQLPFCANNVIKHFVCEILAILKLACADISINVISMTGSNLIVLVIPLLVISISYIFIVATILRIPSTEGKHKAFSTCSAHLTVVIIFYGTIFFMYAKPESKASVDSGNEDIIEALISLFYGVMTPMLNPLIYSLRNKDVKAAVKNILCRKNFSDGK
In short: as §1

[4] = target: T4, OR13H1 (Homo sapiens) (UniProt Q8NG92)
T4 sequence (whole entry): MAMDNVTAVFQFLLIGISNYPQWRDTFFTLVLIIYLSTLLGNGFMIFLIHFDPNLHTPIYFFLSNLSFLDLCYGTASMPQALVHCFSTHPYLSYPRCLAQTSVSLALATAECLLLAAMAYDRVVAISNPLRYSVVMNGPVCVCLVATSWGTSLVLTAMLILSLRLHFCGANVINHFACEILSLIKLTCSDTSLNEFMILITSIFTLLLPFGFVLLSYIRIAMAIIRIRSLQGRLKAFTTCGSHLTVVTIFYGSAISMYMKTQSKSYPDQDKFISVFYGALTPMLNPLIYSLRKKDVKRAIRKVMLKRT
In short: as §1

[5] = target: T5, OR14J1 (Homo sapiens) (UniProt Q9UGF5)
T5 sequence (whole entry): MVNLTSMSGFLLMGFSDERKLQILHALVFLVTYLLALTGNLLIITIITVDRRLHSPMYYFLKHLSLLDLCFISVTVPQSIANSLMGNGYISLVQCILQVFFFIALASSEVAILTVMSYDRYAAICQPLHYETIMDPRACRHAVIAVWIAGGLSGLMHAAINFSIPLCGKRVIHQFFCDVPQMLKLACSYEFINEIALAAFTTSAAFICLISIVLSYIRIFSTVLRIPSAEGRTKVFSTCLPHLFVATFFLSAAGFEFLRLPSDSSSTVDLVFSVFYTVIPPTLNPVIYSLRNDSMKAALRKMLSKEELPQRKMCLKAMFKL
In short: as §1

[6] = target: T6, OR1A1 (Homo sapiens) (UniProt Q9P1Q5)
T6 sequence (whole entry): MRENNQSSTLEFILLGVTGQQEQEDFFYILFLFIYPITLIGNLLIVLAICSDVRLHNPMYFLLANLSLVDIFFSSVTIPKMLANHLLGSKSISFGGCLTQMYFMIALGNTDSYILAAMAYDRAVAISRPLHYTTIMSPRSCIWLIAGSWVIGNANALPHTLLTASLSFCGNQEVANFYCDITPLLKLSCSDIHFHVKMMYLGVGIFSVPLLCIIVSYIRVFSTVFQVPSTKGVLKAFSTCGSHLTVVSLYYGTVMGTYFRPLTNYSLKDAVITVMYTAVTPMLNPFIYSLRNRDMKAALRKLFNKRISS
In short: as §1

[7] = test system: T7, OR1A1
T7 sequence (whole entry): T6 sequence (whole entry) with R128H
In short: as §1

[8] = test system: T8, OR1A1; remark: listed apart in the source
T8 sequence (whole entry): T6 sequence (whole entry) with V233M
In short: as §1

[9] = test system: T9, OR1A1; remark: listed apart in the source
T9 sequence (whole entry): T6 sequence (whole entry) with P285S
In short: as §1

[10] = target: T10, OR1A2 (Homo sapiens) (UniProt Q9Y585)
T10 sequence (whole entry): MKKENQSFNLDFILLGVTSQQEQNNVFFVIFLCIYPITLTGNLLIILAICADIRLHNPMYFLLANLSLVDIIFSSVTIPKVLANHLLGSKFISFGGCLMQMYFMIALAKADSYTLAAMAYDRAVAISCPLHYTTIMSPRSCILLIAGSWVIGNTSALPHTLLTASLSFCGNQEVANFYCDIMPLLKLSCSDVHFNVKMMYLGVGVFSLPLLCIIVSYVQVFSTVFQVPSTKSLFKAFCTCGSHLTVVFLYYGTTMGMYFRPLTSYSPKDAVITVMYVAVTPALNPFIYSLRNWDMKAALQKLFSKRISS
In short: as §1

[11] = target: T11, OR1C1 (Homo sapiens) (UniProt Q15619)
T11 sequence (whole entry): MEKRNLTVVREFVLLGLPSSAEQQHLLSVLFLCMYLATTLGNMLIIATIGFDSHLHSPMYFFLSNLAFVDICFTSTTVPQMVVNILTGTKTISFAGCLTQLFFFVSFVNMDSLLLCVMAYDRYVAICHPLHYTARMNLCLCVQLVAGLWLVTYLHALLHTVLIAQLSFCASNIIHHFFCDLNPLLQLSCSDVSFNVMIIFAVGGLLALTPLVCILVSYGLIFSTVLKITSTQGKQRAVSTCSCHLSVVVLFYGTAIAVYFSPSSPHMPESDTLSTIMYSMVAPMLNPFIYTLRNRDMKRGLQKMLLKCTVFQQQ
In short: as §1

[12] = target: T12, OR1D2 (Homo sapiens) (UniProt P34982)
T12 sequence (whole entry): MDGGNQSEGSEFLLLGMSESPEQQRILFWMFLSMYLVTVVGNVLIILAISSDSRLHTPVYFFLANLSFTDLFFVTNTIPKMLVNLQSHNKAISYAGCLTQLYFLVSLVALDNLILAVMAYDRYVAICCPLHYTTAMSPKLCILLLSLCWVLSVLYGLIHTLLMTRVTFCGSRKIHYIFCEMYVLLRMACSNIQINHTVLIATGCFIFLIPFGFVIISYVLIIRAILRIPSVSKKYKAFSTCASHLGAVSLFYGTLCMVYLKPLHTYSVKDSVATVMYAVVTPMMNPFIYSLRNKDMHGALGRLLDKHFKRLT
In short: as §1

[13] = target: T13, OR1D5 (Homo sapiens) (UniProt P58170)
T13 sequence (whole entry): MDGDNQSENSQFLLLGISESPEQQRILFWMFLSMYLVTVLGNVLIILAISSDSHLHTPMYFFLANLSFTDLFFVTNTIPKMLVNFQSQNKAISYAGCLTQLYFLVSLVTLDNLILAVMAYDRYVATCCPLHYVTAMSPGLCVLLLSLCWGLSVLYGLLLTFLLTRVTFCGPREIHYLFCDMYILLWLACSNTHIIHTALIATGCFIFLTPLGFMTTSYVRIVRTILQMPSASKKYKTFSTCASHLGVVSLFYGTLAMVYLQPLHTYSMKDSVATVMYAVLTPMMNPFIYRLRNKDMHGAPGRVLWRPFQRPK
In short: as §1

[14] = test system: T14, OR1D5
T14 sequence (whole entry): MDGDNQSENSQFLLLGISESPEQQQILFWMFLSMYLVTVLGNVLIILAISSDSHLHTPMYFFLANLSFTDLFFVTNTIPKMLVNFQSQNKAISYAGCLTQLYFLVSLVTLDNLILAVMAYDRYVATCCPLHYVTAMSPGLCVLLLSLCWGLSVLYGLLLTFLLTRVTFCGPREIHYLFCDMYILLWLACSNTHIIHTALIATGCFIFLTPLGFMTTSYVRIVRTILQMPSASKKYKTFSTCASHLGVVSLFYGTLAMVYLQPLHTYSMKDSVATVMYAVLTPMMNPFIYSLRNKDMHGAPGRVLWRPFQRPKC
In short: as §1

[15] = test system: T15, OR1E1
T15 sequence (whole entry): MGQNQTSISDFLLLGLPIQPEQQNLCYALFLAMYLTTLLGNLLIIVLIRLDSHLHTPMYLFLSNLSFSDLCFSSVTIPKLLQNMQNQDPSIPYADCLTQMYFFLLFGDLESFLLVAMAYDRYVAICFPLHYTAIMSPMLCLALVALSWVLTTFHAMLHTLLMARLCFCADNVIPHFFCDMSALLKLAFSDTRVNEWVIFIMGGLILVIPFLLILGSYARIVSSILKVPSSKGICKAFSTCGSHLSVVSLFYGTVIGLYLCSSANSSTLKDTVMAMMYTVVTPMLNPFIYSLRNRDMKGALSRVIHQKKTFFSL
In short: as §1

[16] = test system: T16, OR1E1; remark: listed apart in the source
T16 sequence (whole entry): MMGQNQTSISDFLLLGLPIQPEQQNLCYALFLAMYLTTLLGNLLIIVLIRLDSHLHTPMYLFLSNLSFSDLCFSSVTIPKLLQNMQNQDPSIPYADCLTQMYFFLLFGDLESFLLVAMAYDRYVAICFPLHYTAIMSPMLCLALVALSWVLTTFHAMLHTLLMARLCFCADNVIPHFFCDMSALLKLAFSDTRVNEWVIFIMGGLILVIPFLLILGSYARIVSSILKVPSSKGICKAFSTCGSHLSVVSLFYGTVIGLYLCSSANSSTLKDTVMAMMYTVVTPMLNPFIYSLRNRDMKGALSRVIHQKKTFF
In short: as §1

[17] = target: T17, OR1E2 (Homo sapiens) (UniProt P47887)
T17 sequence (whole entry): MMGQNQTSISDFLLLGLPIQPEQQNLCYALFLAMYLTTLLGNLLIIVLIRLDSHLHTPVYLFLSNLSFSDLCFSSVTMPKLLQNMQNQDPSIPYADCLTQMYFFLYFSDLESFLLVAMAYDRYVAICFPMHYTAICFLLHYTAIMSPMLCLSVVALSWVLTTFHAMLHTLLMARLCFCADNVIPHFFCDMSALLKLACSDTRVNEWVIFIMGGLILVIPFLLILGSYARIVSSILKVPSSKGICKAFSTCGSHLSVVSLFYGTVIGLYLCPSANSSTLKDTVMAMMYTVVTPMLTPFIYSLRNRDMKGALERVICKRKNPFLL
In short: as §1

[18] = test system: T18, OR1E2
T18 sequence (whole entry): T17 sequence (whole entry) with C27R
In short: as §1

[19] = test system: T19, OR1F1
T19 sequence (whole entry): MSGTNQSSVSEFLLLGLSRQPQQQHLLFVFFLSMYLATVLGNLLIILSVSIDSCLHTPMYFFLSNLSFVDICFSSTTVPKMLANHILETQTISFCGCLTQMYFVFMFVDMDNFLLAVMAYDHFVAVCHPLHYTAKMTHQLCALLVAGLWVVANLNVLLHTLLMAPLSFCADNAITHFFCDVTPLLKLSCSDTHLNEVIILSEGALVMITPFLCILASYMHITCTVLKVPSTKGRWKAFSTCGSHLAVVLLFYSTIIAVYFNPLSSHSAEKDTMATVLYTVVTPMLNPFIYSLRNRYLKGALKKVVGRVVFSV
In short: as §1

[20] = test system: T20, OR1FC
T20 sequence (whole entry): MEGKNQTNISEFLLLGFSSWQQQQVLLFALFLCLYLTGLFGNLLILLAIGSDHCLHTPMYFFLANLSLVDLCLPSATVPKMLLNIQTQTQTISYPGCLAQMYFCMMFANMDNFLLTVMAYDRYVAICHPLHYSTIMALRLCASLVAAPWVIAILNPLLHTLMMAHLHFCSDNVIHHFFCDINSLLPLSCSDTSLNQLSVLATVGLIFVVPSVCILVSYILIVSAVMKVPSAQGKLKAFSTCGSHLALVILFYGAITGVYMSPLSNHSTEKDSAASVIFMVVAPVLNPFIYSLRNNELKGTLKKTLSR
In short: as §1

Measured: odorant receptor agonist call;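 further: active if original authors judged signal statistically different from baseline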

CCC(C)=O
inactive: [1] | [2] | [3] | [4] | [5] | [6] | [7] | [8] | [9] | [10] | [11] | [12] | [13] | [14] | [15] | [16] | [17] | [18] | [19] | [20]
